The values that follow come from publication doi:10.1101/2023.12.12.571217.

Amino acid sequences for entries named in this document (tags omitted).
UniProt P80316: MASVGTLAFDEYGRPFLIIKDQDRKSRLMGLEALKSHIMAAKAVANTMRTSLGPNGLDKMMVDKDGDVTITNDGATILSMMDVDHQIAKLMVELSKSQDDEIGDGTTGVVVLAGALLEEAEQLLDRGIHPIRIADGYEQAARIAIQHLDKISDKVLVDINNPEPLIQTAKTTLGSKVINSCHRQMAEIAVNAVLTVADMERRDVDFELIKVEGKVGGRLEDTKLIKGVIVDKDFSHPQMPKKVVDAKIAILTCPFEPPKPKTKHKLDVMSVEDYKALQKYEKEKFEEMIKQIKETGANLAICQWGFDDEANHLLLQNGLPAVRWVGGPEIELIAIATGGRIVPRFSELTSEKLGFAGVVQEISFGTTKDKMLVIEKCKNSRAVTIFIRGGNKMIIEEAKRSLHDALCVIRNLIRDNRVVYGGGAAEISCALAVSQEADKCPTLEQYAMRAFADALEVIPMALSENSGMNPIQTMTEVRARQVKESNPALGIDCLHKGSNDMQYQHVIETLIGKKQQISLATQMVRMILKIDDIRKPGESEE
UniProt Q6P5F9: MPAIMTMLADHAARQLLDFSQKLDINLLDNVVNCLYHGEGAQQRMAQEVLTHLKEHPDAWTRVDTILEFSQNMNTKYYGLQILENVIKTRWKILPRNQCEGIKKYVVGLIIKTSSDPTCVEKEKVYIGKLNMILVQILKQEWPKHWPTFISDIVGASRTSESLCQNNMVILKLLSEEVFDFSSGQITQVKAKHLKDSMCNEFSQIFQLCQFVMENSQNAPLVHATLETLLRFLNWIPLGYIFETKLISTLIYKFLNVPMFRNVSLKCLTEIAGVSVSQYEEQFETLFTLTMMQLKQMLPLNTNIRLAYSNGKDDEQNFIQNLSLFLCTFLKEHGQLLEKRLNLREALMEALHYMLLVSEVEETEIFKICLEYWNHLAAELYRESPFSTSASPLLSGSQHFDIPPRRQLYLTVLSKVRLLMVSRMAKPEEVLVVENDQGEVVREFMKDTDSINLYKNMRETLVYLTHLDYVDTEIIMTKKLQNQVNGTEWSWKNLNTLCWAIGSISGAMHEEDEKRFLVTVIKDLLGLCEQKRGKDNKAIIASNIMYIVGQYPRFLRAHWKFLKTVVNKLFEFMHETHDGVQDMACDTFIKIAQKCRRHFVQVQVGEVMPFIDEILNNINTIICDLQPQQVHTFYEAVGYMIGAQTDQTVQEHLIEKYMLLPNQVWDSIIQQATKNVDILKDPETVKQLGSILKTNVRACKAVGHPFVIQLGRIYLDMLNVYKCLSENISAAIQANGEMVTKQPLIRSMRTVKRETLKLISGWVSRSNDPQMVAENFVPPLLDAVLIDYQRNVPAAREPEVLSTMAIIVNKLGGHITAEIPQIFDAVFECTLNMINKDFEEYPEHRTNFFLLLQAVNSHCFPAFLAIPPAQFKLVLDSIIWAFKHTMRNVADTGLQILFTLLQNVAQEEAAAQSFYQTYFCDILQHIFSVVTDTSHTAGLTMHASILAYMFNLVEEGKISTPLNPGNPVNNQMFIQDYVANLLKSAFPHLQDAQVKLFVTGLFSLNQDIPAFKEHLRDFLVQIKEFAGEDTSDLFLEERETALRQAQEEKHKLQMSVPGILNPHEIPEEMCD
UniProt Q9ESJ0: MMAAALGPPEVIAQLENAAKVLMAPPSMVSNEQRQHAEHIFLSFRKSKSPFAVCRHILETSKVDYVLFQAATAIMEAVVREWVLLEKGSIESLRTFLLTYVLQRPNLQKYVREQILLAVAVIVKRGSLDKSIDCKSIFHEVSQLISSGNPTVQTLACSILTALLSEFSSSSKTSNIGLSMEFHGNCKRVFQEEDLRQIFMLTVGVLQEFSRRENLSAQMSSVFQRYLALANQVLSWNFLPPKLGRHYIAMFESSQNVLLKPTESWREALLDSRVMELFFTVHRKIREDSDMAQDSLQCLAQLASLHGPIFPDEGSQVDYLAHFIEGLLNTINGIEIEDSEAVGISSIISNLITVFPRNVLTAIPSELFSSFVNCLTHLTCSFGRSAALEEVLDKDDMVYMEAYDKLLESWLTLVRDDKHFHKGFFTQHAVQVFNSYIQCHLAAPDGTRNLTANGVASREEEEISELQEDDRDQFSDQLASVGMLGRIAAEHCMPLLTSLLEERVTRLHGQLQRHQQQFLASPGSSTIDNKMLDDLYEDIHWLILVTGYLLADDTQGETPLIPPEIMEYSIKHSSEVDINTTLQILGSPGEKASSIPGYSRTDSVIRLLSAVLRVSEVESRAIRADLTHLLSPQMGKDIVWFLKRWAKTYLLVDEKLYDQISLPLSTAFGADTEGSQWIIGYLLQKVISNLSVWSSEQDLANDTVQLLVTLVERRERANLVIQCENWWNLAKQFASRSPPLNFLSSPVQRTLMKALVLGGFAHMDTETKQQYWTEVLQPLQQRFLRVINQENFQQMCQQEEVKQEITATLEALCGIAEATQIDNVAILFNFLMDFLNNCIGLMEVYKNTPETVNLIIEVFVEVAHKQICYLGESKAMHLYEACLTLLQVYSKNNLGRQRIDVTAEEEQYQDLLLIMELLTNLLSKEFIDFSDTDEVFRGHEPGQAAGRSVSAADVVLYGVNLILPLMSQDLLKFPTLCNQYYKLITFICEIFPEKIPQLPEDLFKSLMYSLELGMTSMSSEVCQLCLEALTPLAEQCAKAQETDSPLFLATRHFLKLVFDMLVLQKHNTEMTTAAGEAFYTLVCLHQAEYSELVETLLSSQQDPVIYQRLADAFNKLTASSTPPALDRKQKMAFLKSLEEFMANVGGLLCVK
UniProt Q7TMY7: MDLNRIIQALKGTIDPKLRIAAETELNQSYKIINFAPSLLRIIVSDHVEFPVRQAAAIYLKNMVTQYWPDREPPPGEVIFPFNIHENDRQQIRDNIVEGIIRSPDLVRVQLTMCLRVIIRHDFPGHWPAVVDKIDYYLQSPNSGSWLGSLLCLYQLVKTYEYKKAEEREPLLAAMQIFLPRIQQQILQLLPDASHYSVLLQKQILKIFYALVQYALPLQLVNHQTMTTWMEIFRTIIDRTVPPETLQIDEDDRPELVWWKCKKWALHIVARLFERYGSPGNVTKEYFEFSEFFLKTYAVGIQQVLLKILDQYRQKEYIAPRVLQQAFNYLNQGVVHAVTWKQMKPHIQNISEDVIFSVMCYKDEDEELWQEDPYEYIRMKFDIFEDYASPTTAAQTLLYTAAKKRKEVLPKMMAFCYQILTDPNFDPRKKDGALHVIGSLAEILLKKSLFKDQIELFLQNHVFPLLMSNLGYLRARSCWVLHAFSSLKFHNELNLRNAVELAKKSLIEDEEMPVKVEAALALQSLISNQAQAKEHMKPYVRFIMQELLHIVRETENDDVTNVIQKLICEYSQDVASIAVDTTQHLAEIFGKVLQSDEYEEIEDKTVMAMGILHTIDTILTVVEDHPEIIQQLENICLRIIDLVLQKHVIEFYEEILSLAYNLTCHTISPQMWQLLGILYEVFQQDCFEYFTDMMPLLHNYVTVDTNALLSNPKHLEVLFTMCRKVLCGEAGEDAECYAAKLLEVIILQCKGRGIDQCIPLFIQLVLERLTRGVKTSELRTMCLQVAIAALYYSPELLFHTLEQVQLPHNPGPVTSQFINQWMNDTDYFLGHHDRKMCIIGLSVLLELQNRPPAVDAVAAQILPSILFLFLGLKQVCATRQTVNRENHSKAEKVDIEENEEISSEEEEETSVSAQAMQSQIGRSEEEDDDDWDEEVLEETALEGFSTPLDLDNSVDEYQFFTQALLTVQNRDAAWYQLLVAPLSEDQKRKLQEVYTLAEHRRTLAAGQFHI
UniProt P97820: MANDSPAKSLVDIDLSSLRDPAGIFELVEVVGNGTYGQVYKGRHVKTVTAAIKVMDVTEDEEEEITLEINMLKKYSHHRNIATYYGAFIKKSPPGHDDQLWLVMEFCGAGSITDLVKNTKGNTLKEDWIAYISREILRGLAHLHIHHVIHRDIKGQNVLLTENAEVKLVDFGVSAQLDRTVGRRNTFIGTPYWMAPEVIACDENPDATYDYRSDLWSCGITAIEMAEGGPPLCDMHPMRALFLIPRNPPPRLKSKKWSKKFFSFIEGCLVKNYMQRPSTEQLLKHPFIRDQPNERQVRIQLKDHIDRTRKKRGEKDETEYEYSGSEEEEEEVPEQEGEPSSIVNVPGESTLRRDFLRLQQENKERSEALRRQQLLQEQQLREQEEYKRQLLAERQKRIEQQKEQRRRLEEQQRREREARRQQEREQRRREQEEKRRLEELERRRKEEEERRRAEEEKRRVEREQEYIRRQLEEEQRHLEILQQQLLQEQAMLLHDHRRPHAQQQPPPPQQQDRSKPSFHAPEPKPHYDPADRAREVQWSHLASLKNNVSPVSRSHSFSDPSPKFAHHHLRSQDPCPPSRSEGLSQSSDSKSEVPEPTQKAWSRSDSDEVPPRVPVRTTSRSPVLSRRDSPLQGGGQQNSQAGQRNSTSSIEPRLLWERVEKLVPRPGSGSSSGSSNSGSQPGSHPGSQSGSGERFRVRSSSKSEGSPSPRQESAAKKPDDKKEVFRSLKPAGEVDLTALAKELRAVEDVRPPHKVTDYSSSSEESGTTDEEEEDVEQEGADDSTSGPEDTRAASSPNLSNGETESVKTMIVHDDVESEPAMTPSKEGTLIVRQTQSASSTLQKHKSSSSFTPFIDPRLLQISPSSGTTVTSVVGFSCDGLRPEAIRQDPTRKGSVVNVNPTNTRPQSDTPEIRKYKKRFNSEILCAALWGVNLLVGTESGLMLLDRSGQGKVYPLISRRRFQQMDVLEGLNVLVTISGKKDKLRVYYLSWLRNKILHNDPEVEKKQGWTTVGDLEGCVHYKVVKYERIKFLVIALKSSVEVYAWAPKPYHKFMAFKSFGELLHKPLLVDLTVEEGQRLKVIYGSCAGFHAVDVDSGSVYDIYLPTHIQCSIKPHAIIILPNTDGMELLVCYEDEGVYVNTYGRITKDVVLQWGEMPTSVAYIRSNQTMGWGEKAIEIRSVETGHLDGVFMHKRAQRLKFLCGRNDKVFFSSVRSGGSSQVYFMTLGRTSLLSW

These are yes or no findings as the source states them, for the method shown. In cells and extracts the contact can be indirect. These calls come from enrichment with a bait or labelling near it, and not all partners need be listed.

For the experiment, the target named is human PADI4 stably expressed in E14 mouse embryonic stem cells (hPADI4-stable) (human) (UniProt Q9UM07). Briefly: affinity purification with mass spectrometry.

For the molecule Cct5 (from UniProt P80316 1-541), the binding entry is recorded as “binds”.

Consider Cip2a (from UniProt Q8BWY9 1-907), for which the binding entry is reported as “binds”.

“exportin Xpo1 (from UniProt Q6P5F9 1-1071)”: the binding entry is “binds”.

Consider “exportin Xpo4 (from UniProt Q9ESJ0 1-1151)”, for which the binding entry is given as “binds”.

Take “importin Ipo8 (from UniProt Q7TMY7 1-1010)”: the binding entry is listed as “binds”.

Turning to “mitogen-activated protein kinase Map4k4 (from UniProt P97820 1-1233)”, the binding result is on record as “binds”.

B1: Cct3 (protein, UniProt P80318 1-545)
chain: MMGHRPVLVLSQNTKRESGRKVQSGNINAAKTIADIIRTCLGPKSMMKMLLDPMGGIVMTNDGNAILREIQVQHPAAKSMIEISRTQDEEVGDGTTSVIILAGEMLSVAEHFLEQQMHPTVVISAYRMALDDMISTLKKISTPVDVNNREMMLSIINSSITTKVISRWSSLACNIALDAVKTVQFEENGRKEIDIKKYARVEKIPGGIIEDSCVLRGVMINKDVTHPRMRRYIKNPRIVLLDSSLEYKKGESQTDIEITREEDFTRILQMEEEYIHQLCEDIIQLKPDVVITEKGISDLAQHYLMRANVTAIRRVRKTDNNRIARACGARIVSRPEELREDDVGTGAGLLEIKKIGDEYFTFITDCKDPKACTILLRGASKEILSEVERNLQDAMQVCRNVLLDPQLVPGGGASEMAVAHALTEKSKAMTGVEQWPYRAVAQALEVIPRTLIQNCGASTIRLLTSLRAKHTQESCETWGVNGETGTLVDMKELGIWEPLAVKLQTYKTAVETAVLLLRIDDIVSGHKKKGDDQNRQTGAPDAGQE
For B1, the binding entry is reported as “binds”.

B2: Cct8 (protein, UniProt P42932 1-548)
chain: MALHVPKAPGFAQMLKDGAKHFSGLEEAVYRNIQACKELAQTTRTAYGPNGMNKMVINRLEKLFVTNDAATILRELEVQHPAAKMIVMASHMQEQEVGDGTNFVLVFAGALLELAEELLRIGLSVSEVISGYEIACKKAHEILPELVCCSAKNLRDVDEVSSLLRTSIMSKQYGSETFLAKLIAQACVSIFPDSGNFNVDNIRVCKILGSGIYSSSVLHGMVFKKETEGDVTSVKDAKIAVYSCPFDGMITETKGTVLIKTAEELMNFSKGEENLMDAQVKAIAGTGANVIVTGGKVADIALHYANKYNIMLVRLNSKWDLRRLCKTVGATALPKLTPPVQEEMGHCDSVYLSEVGDTQVVVFKHEKEDGAISTIVLRGSTDNLMDDIERAVDDGVNTFKVLTRDKRLVPGGGATEIELAKQITSYGETCPGLEQYAIKKFAEAFEAIPRALAENSGVKANEVISKLYSVHQEGNKNVGLDIEAEVPAVKDMLEASILDTYLGKYWAIKLATNAAVTVLRVDQIIMAKPAGGPKPPSGKKDWDDDQND
Consider B2, for which the binding entry is reported as “binds”.

B3: lysine demethylase Kdm3a (protein, UniProt Q6PCM1 1-1323)
chain: MVLTLGESWPVLVGKRFLSLSAAEGNEGGQDNWDLERVAEWPWLSGTIRAVSHTDVTKKDLKVCVEFDGESWRKRRWIDVYSLQRKAFLVEHNLVLAERKSPEVPEQVIQWPAIMYKSLLDKAGLGAITSVRFLGDQQSVFVSKDLLKPIQDVNSLRLSLTDNQTVSKEFQALIVKHLDESHLLQGDKNLVGSEVKIYSLDPSTQWFSATVVHGNPSSKTLQVNCEEIPALKIVDPALIHVEVVHDNFVTCGNSTRTGAVKRKSSENNGSSVSKQAKSCSEASPSMCPVQSVPTTVFKEILLGCTAATPSSKDPRQQNTPQAANSPPNIGAKLPQGCHKQNLPEELSSCLNTKPEVPRTKPDVCKEGLLSSKSSQVGAGDLKILSEPKGSCIQPKTNTDQESRLESAPQPVTGLPKECLPAKTSSKAELDIATTPELQKHLEHAASTSDDLSDKPEVKAGVTSLNSCAEKKVEPSHLGSQSQNLKETSVKVDNESCCTRSSNKTQTPPARKSVLTDPDKVRKLQQSGEAFVQDDSCVNIVAQLPKCRECRLDSLRKDKDQQKDSPVFCRFFHFRRLQFNKHGVLRVEGFLTPNKYDSEAIGLWLPLTKNVVGTDLDTAKYILANIGDHFCQMVISEKEAMSTIEPHRQVAWKRAVKGVREMCDVCDTTIFNLHWVCPRCGFGVCVDCYRMKRKNCQQGAAYKTFSWIRCVKSQIHEPENLMPTQIIPGKALYDVGDIVHSVRAKWGIKANCPCSNRQFKLFSKPALKEDLKQTSLSGEKPTLGTMVQQSSPVLEPVAVCGEAASKPASSVKPTCPTSTSPLNWLADLTSGNVNKENKEKQLTMPILKNEIKCLPPLPPLNKPSTVLHTFNSTILTPVSNNNSGFLRNLLNSSTAKTENGLKNTPKILDDIFASLVQNKTSSDSSKRPQGLTIKPSILGFDTPHYWLCDNRLLCLQDPNNKSNWNVFRECWKQGQPVMVSGVHHKLNTELWKPESFRKEFGEQEVDLVNCRTNEIITGATVGDFWDGFEDVPNRLKNDKEKEPMVLKLKDWPPGEDFRDMMPSRFDDLMANIPLPEYTRRDGKLNLASRLPNYFVRPDLGPKMYNAYGLITPEDRKYGTTNLHLDVSDAANVMVYVGIPKGQCEQEEEVLRTIQDGDSDELTIKRFIEGKEKPGALWHIYAAKDTEKIREFLKKVSEEQGQDNPADHDPIHDQSWYLDRSLRKRLYQEYGVQGWAIVQFLGDVVFIPAGAPHQVHNLYSCIKVAEDFVSPEHVKHCFWLTQEFRYLSQTHTNHEDKLQVKNVIYHAVKDAVAMLKASESSLGKP
With B3, the binding entry was “binds”.
